Laboratory results: PubChem BioAssay AID743121 (NCATS, 2013)

Aim: 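Partners whose loss is lethal together with topoisomerase I blockade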 (primary screen)
Cell system: MDA-MB-231 cells, a human breast cancer line
Reagents: single siRNA against human genes, 20 nM siRNA (0.8 pmol per well)
Duration: 120 h (drug added 48 h after transfection, read 72 h later)
Conditions: camptothecin 20 nM (about EC30) for 72 h; vehicle 0.1% DMSO in parallel plates
Read-out: 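CellTiter-Glo ATP signal, scaled to control siRNA as percent viability; sensitisation given as log2 of untreated divided by camptothecin-treated viability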
Scale: log2 vehicle/camptothecin viability: higher = stronger sensitisation to camptothecin; viability with camptothecin: higher = more viable cells
Units: viability with camptothecin in % of control
Hit rule: 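Active genes have an RSA gene-level p-value below 0.001, computed from the ratios of their separate siRNAs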
Here is one part, drawn at random, of about 26,000 deposited reagents. Of all reagents, 167 (0.63%) were called active. 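Calls are per gene from RSA p-values that are not deposited; an individual active-marked siRNA can sensitise only weakly.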 Reagents against one gene are numbered here. Further read-outs or replicates are left out here. No sequences are given here.

Depletion of CEP85 #1 gave: log2 vehicle/camptothecin viability 0.108; viability with camptothecin 83.9; inactive. Knock-down of CEP85 #2 resulted in: log2 vehicle/camptothecin viability -0.362; viability with camptothecin 57.6; inactive. CEP85 #3 scored log2 vehicle/camptothecin viability -0.221; viability with camptothecin 73.9; inactive. Against CEP85 #4, the entry reads log2 vehicle/camptothecin viability -0.223; viability with camptothecin 116; inactive. Knock-down of COL3A1 #1 resulted in: log2 vehicle/camptothecin viability 0.565; viability with camptothecin 26.5; inactive. For COL3A1 #2 the deposit lists log2 vehicle/camptothecin viability 0.975; viability with camptothecin 15.7; inactive.

With knock-down of COL3A1 #3, the record shows log2 vehicle/camptothecin viability -0.177; viability with camptothecin 79.6; inactive. UBE3A #1 showed log2 vehicle/camptothecin viability 0.328; viability with camptothecin 63.2; inactive. With knock-down of UBE3A #2, the record shows log2 vehicle/camptothecin viability 0.0161; viability with camptothecin 81.4; inactive. With knock-down of UBE3A #3, the screen gave log2 vehicle/camptothecin viability -0.198; viability with camptothecin 98.5; inactive. After knock-down of UBE3A #4 the results were log2 vehicle/camptothecin viability 0.0577; viability with camptothecin 18.8; inactive. GOSR2 #1 showed log2 vehicle/camptothecin viability -0.566; viability with camptothecin 66.5; inactive.

With knock-down of GOSR2 #2 the results were log2 vehicle/camptothecin viability -0.403; viability with camptothecin 76.3; inactive. GOSR2 #3 showed log2 vehicle/camptothecin viability 0.691; viability with camptothecin 24.6; inactive. For GOSR2 #4 the deposit lists log2 vehicle/camptothecin viability -0.398; viability with camptothecin 66.9; inactive. Depletion of GOSR2 #5 came out at: log2 vehicle/camptothecin viability -0.25; viability with camptothecin 69.9; inactive. After knock-down of GOSR2 #6, the screen gave log2 vehicle/camptothecin viability -0.196; viability with camptothecin 102; inactive. Silencing of GOSR2 #7 resulted in: log2 vehicle/camptothecin viability -0.0335; viability with camptothecin 106; inactive.

GOSR2 #8 scored log2 vehicle/camptothecin viability -0.223; viability with camptothecin 94.9; inactive. With knock-down of PRL #1, the screen gave log2 vehicle/camptothecin viability -0.132; viability with camptothecin 132; inactive. With knock-down of PRL #2 the results were log2 vehicle/camptothecin viability -0.551; viability with camptothecin 71; inactive. For PRL #3, the values are log2 vehicle/camptothecin viability 0.122; viability with camptothecin 90.4; inactive. PRL #4 gave log2 vehicle/camptothecin viability -0.1; viability with camptothecin 78.2; inactive. LARS2 #1 showed log2 vehicle/camptothecin viability -0.0772; viability with camptothecin 50.8; inactive.

LARS2 #2 gave log2 vehicle/camptothecin viability -0.576; viability with camptothecin 69.2; inactive. LARS2 #3 showed log2 vehicle/camptothecin viability 0.892; viability with camptothecin 25.3; inactive. Knock-down of LARS2 #4 came out at: log2 vehicle/camptothecin viability -0.0815; viability with camptothecin 43.2; inactive. After knock-down of CD160 #1, the screen gave log2 vehicle/camptothecin viability -0.607; viability with camptothecin 56.9; inactive. Silencing of CD160 #2 resulted in: log2 vehicle/camptothecin viability -0.264; viability with camptothecin 78.5; inactive. For CD160 #3, the entry reads log2 vehicle/camptothecin viability 0.215; viability with camptothecin 86.3; inactive.

Depletion of CD160 #4 gave: log2 vehicle/camptothecin viability -0.172; viability with camptothecin 37; inactive. CAPNS1 #1 showed log2 vehicle/camptothecin viability -0.313; viability with camptothecin 84.8; inactive. Depletion of CAPNS1 #2 gave: log2 vehicle/camptothecin viability -0.159; viability with camptothecin 78.5; inactive. After knock-down of CAPNS1 #3 the results were log2 vehicle/camptothecin viability -0.712; viability with camptothecin 52.3; inactive. After knock-down of CAPNS1 #4 the results were log2 vehicle/camptothecin viability -0.282; viability with camptothecin 101; inactive. SUMO1P3 #1 showed log2 vehicle/camptothecin viability -0.196; viability with camptothecin 129; inactive.

Against SUMO1P3 #2, the entry reads log2 vehicle/camptothecin viability -0.103; viability with camptothecin 108; inactive. After knock-down of SUMO1P3 #3, the screen gave log2 vehicle/camptothecin viability -0.438; viability with camptothecin 94.7; inactive. For SUMO1P3 #4 the deposit lists log2 vehicle/camptothecin viability -0.174; viability with camptothecin 108; inactive. For POU2F1 #1, the values are log2 vehicle/camptothecin viability 0.142; viability with camptothecin 44.4; inactive. POU2F1 #2 gave log2 vehicle/camptothecin viability 0.409; viability with camptothecin 75.2; inactive. POU2F1 #3 gave log2 vehicle/camptothecin viability 0.106; viability with camptothecin 86; inactive.

NPPB #1 gave log2 vehicle/camptothecin viability -0.413; viability with camptothecin 49.8; inactive. NPPB #2 showed log2 vehicle/camptothecin viability -0.633; viability with camptothecin 114; inactive. NPPB #3 showed log2 vehicle/camptothecin viability -0.494; viability with camptothecin 59.3; inactive. For NPPB #4, the values are log2 vehicle/camptothecin viability -0.0521; viability with camptothecin 84; inactive.

Ordered by “log2 vehicle/camptothecin viability” (low to high): some entries from above
CAPNS1 #1 — log2 vehicle/camptothecin viability: -0.313; viability with camptothecin: 84.8; call: inactive
CD160 #4 — log2 vehicle/camptothecin viability: -0.172; viability with camptothecin: 37; call: inactive
CD160 #3 — log2 vehicle/camptothecin viability: 0.215; viability with camptothecin: 86.3; call: inactive
